# Source: the supplement of paper PMC12067093, “Discovery and optimisation of a covalent ligand for TRIM25 and its application to targeted protein ubiquitination” (Chemical Science, 2025)
# The list shows a part of the results.
# Compound: CC1Cc2ccccc2N1C(=O)C1CCCN(C1)C(=O)CCl (mixture of isomers) [TRIM25 ligand 11 (diastereomer mixture)]
# Test: probe-labelled cysteine peptide fold change vs DMSO (competition) (log2 fold change); higher = less target engagement (more negative = stronger competition)
# Details: THP-1, incubation time: 4 h
# 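Also: competitive chemoproteomic profiling in live THP-1 cells with an iodoacetamide desthiobiotin (IA-DTB) probe, comparing probe-labelled peptide intensities in compound-treated cells against DMSO-treated controls.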
Target,probe-labelled cysteine peptide fold change (10 µM),probe-labelled cysteine peptide fold change (50 µM)
CRYZL1_O95825_274_HDIITLLGVGGHWVTTEENLQLDPPDSHCLFLK (UniProt O95825),0.0843,0.0471
CTNNA1_P35221_228_NVPILYTASQACLQHPDVAAYK (UniProt P35221),0.051,0.218
COQ8A_Q8NI60_620_MGGSFLICSK (UniProt Q8NI60),0.135,-0.00226
CPSF4_O95639_162_RVICVNYLVGFCPEGPSCK (UniProt O95639),-0.292,0.0715
COQ8B_Q96D53_508_AHIACR (UniProt Q96D53),-0.0733,0.0572
CPNE8_Q86YQ8_118_HDFLGQVFCTLGEIVGSQGSR (UniProt Q86YQ8),0.132,0.595
CSK_P41240_290_SVLGGDCLLK (UniProt P41240),-0.03,-0.0513
CPT2_P23786_639_EFLQCVEK (UniProt P23786),0.105,0.149
CPNE3_O75131_15_VALNVSCANLLDK (UniProt O75131),0.0534,0.111
COX20_Q5RI15_29_LLGFLDVENTPCAR (UniProt Q5RI15),0.109,0.101
CRBN_Q96SW2_188_VQILPECVLPSTMSAVQLESLNK (UniProt Q96SW2),-0.294,0.216
CPSF7_Q8N684_399_DCLHGIEAK (UniProt Q8N684),-0.0325,-0.0369
CSDE1_O75534_106_MNGQVVCAVPHNLESK (UniProt O75534),0.118,-0.139
CTBP2_P56545_318_DAPNLICTPHTAWYSEQASLEMR (UniProt P56545),-0.0315,-0.0653
CRYBG3_Q68DQ2_1502_SSLSDSLVCISEK (UniProt Q68DQ2),0.023,-0.244
COX6B1_P14854_54_GGDISVCEWYQR (UniProt P14854),-0.188,-0.269
CORO7_P57737_691_IVWVCDGR (UniProt P57737),0.154,0.334
CPSF2_Q9P2I0_765_IGLEGCLCQDFYR (UniProt Q9P2I0),-0.0679,-0.0456
CRELD2_Q6UXH1_120_SEYPDLFEWFCVK (UniProt Q6UXH1),0.193,0.154
CPNE2_Q96FN4_48_SDPFCVLFTENNGR (UniProt Q96FN4),-0.0238,0.0817
CRTAP_O75718_243_AFYECLAACEGSR (UniProt O75718),1.6e-06,0.261
CTCF_P49711_497_CDQCDYACR (UniProt P49711),-0.0139,0.0637

# Full records, quoted from the list:
# CRBN_Q96SW2_188_VQILPECVLPSTMSAVQLESLNK (UniProt Q96SW2) as listed: probe-labelled cysteine peptide fold change (10 µM) = -0.294; probe-labelled cysteine peptide fold change (50 µM) = 0.216
# CPNE8_Q86YQ8_118_HDFLGQVFCTLGEIVGSQGSR (UniProt Q86YQ8) as listed: probe-labelled cysteine peptide fold change (10 µM) = 0.132; probe-labelled cysteine peptide fold change (50 µM) = 0.595
# CORO7_P57737_691_IVWVCDGR (UniProt P57737) as listed: probe-labelled cysteine peptide fold change (10 µM) = 0.154; probe-labelled cysteine peptide fold change (50 µM) = 0.334

# (further entries)

Target,probe-labelled cysteine peptide fold change (10 µM),probe-labelled cysteine peptide fold change (50 µM)
CSDE1_O75534_657_FQLCVLGQNAQTMAYNITPLR (UniProt O75534),0.0603,0.0628
CPSF1_Q10570_20_QAHPPTGLEFSMYCNFFNNSER (UniProt Q10570),0.0303,0.0242
CPSF1_Q10570_1178_GPVTALCHCNGHLVSAIGQK (UniProt Q10570),0.00342,0.339
CPNE3_O75131_249_SSPVEFECINEK (UniProt O75131),-0.0883,-0.107
CPSF3_Q9UKF6_626_RLEIMLQDIFGEDCVSVK (UniProt Q9UKF6),-0.0038,0.0962
CSTF2T_Q9H0L4_441_RGMETCAMETR (UniProt Q9H0L4),-0.0411,-0.0952
CSDE1_O75534_739_VCEGPK (UniProt O75534),-0.0487,0.0555
CPT2_P23786_326_VDSAVFCLCLDDFPIK (UniProt P23786),0.237,0.111
CREG1_O75629_147_HGFDPQSPLCVHIMLSGTVTK (UniProt O75629),0.0583,0.443
CRIP1_P50238_52+56_PYCNHPCYAAMFGPK (UniProt P50238),-0.413,-0.42
CPD_O75976_1140_HLASLYANNHPSMHMGQPSCPNK (UniProt O75976),0.221,-0.368
COX17_Q14061_23+24_KPLKPCCACPETK (UniProt Q14061),-0.386,-0.745
CSK_P41240_411_MDAPDGCPPAVYEVMK (UniProt P41240),-0.115,-0.116
CSNK2B_P67870_23_GNEFFCEVDEDYIQDK (UniProt P67870),0.0176,-0.0733
COX5B_P10606_93_IVGCICEEDNTSVVWFWLHK (UniProt P10606),-0.0988,-0.178
CPOX_P36551_304_EACDQHGPDLYPK (UniProt P36551),-0.0539,-0.0357
CTNNA1_P35221_461_MSASQLEALCPQVINAALALAAK (UniProt P35221),0.00601,-0.000209
CTCF_P49711_439+442_FHCPHCDTVIAR (UniProt P49711),-0.0628,0.00661
CTNNBL1_Q8WYA6_408_EHEEHVCSILASLLR (UniProt Q8WYA6),-0.143,-0.0712
CORO2A_Q92828_474_TWLTNGFDVFECPPPK (UniProt Q92828),0.0927,-0.0781
CSE1L_P55060_272_SQICDNAALYAQK (UniProt P55060),0.394,0.0435
